The text below walks through data of paper doi:10.1101/368704.

Amino acid sequences for entries named in this document (tags omitted).
UniProt P93830: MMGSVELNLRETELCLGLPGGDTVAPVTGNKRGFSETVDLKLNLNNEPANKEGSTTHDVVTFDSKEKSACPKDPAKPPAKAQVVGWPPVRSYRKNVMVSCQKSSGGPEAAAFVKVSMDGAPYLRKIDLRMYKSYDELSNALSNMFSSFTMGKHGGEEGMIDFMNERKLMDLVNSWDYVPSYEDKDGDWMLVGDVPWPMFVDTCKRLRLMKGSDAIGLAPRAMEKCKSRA

The target in assay [1] is T1, TOPLESS amino-terminal region (AA 1-188; TPL-N), bait fused to the GAL4 DBD (A. thaliana) (UniProt Q94AI7).
T1 sequence: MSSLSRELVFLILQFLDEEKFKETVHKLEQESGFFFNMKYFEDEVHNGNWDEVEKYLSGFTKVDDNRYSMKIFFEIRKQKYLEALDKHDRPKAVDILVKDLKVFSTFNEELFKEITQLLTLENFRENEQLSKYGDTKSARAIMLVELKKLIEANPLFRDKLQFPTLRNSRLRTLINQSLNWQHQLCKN
Kind of assay: two-hybrid.

In assay [2] the target is T1, TOPLESS amino-terminal region (AA 1-188; TPL-N), bait fused to the GAL4 DBD (A. thaliana). Kind of assay: two-hybrid. The source holds these as a separate data set.

Where two headings read alike, the source gives them in different places. These are yes or no findings as the source states them, for the method shown. Some binding calls cover weakened binding; strength is not graded here. Where a sequence is shown, tags or fusion partners need not be part of it.

Consider “auxin/indole-3-acetic acid 17 (IAA17), control prey fused to the GAL4 AD (from UniProt P93830 1-229)”, for which the binding result in assay [1] is recorded as “binds”.

B1: bHLH TF AT3G19860, prey of the binary Y2H fused to the GAL4 AD (protein, UniProt Q9LT23 1-337)
chain: MGIRENGIMLVSRERERARRLENRESIFAEPPCLLLAHRISPSPSILPAEEEVMDVSARKSQKAGREKLRREKLNEHFVELGNVLDPERPKNDKATILTDTVQLLKELTSEVNKLKSEYTALTDESRELTQEKNDLREEKTSLKSDIENLNLQYQQRLRSMSPWGAAMDHTVMMAPPPSFPYPMPIAMPPGSIPMHPSMPSYTYFGNQNPSMIPAPCPTYMPYMPPNTVVEQQSVHIPQNPGNRSREPRAKVSRESRSEKAEDSNEVATQLELKTPGSTSDKDTLQRPEKTKRCKRNNNNNSIEESSHSSKCSSSPSVRDHSSSSSVAGGQKPDDAK
Consider B1, for which, in assay [2], the binding entry is listed as “binds”.

B2: ATCKA2 (AT3G50000), prey of the binary Y2H fused to the GAL4 AD (protein, UniProt Q08466 1-403)
chain: MHLIFFFSYFLRRYLLLLCAILILRAPLAHSLIPPLTCVNTGTVESDVTGIRFDRCLDTDSLAKISLSTVMSKARVYTDVNVIRPKDYWDYESLNVQWGEQDDYEVVRKVGRGKYSEVFEGINMNNNEKCIIKILKPVKKKKIRREIKILQNLCGGPNIVKLLDVVRDQHSKTPSLIFEYVNSTDFKVLYPTLTDYDIRYYIYELLKALDFCHSQGIMHRDVKPHNVMIDHELRKLRLIDWGLAEFYHPGKEYNVRVASRYFKGPELLVDLQDYDYSLDMWSLGCMFAGMIFRKEPFFYGHDNQDQLVKIAKVLGTDELNAYLNKYQLELDTQLEALVGRHSRKPWSKFINADNRHLVSPEAIDYLDKLLRYDHQDRLTAKEAMAHPYFAQVRAAESSRMRTQ
For B2, the binding entry in assay [2] was “no binding”.
